Experimental data reported in the supplement of paper PMC10735217.
Structures can show the parent of a compound that is named as a salt. The list shows a part of the results. This data set is noisy: repeats of one test often differ as much as different tests do.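 The human kidney-derived cells carry a stably integrated construct of eight TEAD-binding elements driving luciferase, read by luminescence in a drug-repurposing library screen. A compound counts as a hit when its signal is more than five robust Z scores above the plate mean.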

Tested on: HEK293A TEAD-LUC reporter
Experiment: TEAD-luciferase reporter activity (YAP activation), robust Z score vs plate; higher = stronger YAP/TEAD activation
Conditions: 24 h

SMILES | TEAD-luciferase reporter activity (compound concentration: 200 nM) | TEAD-luciferase reporter activity (compound concentration: 2 uM) | TEAD-luciferase reporter activity (compound concentration: 10 uM)
O=C(c1cn(Cc2ccccc2)c2ccccc12)N1CCC(O)(c2ccc(Cl)cc2)CC1 | inactive: -0.239 | inactive: 0.339 | inactive: 0.846
[O]=[Hg] [Mercuric Oxide] | inactive: 1.98 | inactive: -0.0662 | inactive: -0.0909
NC(=O)CS(=O)C(c1ccccc1)c1ccccc1 (stereo not drawn) [modafinil d-isomer, short-acting] | – | inactive: 1.33 | –
NC(=O)CS(=O)C(c1ccccc1)c1ccccc1 (configuration not stated) | inactive: 1.28 | – | inactive: -0.312
O=C1CN=C(c2ccccn2)c2cc(Br)ccc2N1 [Bromazepam] | active: 6.42 | – | inactive: -0.317
CC(C)(O)c1cnn2c(-c3ccc(F)c(-c4c(F)cccc4C#N)c3)cnc2n1 | inactive: -1.41 | inactive: -0.984 | inactive: -0.8
CC[N+](C)(C)CCC(C(N)=O)(c1ccccc1)c1ccccc1 | inactive: 1.23 | inactive: -0.186 | inactive: -0.29
C[C@]12CC[C@H](O)C[C@H]1CC[C@@H]1[C@@H]2CC[C@]2(C)[C@@H](c3ccc(=O)oc3)C[C@H]3O[C@]132 [Bufogenin] | inactive: 1.66 | inactive: 3.82 | active: 15.2
NC(=O)[C@@H](CC1CC1)[C@@H](CCC(F)(F)F)C(=O)N[C@H]1N=C(c2ccccc2)c2cccc(F)c2NC1=O | inactive: -1.2 | inactive: 0.06 | inactive: -0.205
COc1ccc(NC(=O)N2CCc3c(sc4c3C(c3ccccc3Cl)=NCc3nnc(C)n3-4)C2)cc1 [Setipafant] | inactive: -1.14 | inactive: 0.074 | inactive: 0.479
COc1cc(OC2CCN(C(C)=O)CC2)ccc1C(=O)N1CCC(N2C(=O)OCc3ccccc32)CC1 | inactive: -1.97 | inactive: -0.205 | inactive: -1.33
COc1cc(N)c(Cl)cc1C(=O)N[C@@H]1CCN(CCCCCC(=O)O[C@H]2CN3CCC2CC3)C[C@@H]1OC [Naronapride] | inactive: 1.63 | inactive: 0.0626 | inactive: -1.63
N#CCCN1C(=O)C(O)N=C(c2ccccc2F)c2cc(Cl)ccc21 (configuration not stated) [cinolazepam] | inactive: 1.32 | inactive: -1.65 | inactive: 1.45
O=C(Nc1ccccc1)N[C@@H]1C(=O)N(CC23CC4CC(CC(C4)C2)C3)c2ccccc2N(c2ccccc2)C1=O | inactive: -1.72 | inactive: -1.33 | inactive: -0.887
Cc1ccc(-c2ccc(OC3CN4CCC3CC4)cn2)cc1 (configuration not stated) | inactive: 0.157 | inactive: -1.91 | inactive: -1.61
CC1=C(CC/C(C)=C/CCC2=CC[C@H](C3=CC(=O)O[C@H]3O)O[C@H]2O)C(C)(C)CCC1 [Manoalide] | inactive: -0.963 | inactive: -0.772 | inactive: 0.307
C=CCCCCCCCCC(=O)O[C@H]1CC[C@H]2[C@@H]3CCC4=CC(=O)C=C[C@]4(C)[C@H]3CC[C@]12C [Bolde   Undecylenate] | – | – | inactive: 0.89
C=CCCCCCCCCC(=O)O[C@H]1CC[C@H]2[C@@H]3CCC4=CC(=O)C=C[C@]4(C)[C@H]3CC[C@]12C [Bolde    Undecylenate] | – | inactive: 0.356 | –
C=CCCCCCCCCC(=O)O[C@H]1CC[C@H]2[C@@H]3CCC4=CC(=O)C=C[C@]4(C)[C@H]3CC[C@]12C [Bolde Undecylenate] | inactive: 2.97 | – | –
N#Cc1cncc(N2C[C@H]3CNC[C@H]32)c1 | active: 5.05 | inactive: -1.36 | inactive: -0.953
O=C1[O][Pt]2([NH][C@@H]3CCCC[C@H]3[NH]2)[O]C1=O | inactive: 4.24 | inactive: 0.292 | inactive: -0.0318
CCc1c(C(=O)C(N)=O)c2c(OCC(=O)O)cccc2n1Cc1ccccc1 | inactive: 0.622 | – | inactive: 1.37
CCc1c(C(=O)C(N)=O)c2c(OCC(=O)O)cccc2n1Cc1ccccc1 [Varespladib] | – | inactive: -1.35 | –
CC(=O)OC(c1ccccc1)C1CCCCN1 (configuration not stated) | inactive: 0.261 | inactive: 0.147 | inactive: -0.771
NC(=O)CN1CC(c2ccccc2)CC1=O (configuration not stated) [Fonturacetam] | inactive: -1.86 | inactive: 2.08 | inactive: -1.73
CCN(CC)CC(=O)Nc1ccc(Cl)cc1C(=O)c1ccccc1 | active: 13.1 | inactive: -0.38 | inactive: 2.67
O=C(O)CCSC1c2ccccc2COc2ccc(OCc3ccc4cc(F)c(Cl)cc4n3)cc21 (configuration not stated) | inactive: 0.605 | inactive: -0.0354 | inactive: -0.888
CCCCCn1cc(C(=O)C23CC4CC(CC(C4)C2)C3)c2ccccc21 | inactive: -0.833 | inactive: 0.115 | inactive: 0.254

Single records (already shown).
O=C(c1cn(Cc2ccccc2)c2ccccc12)N1CCC(O)(c2ccc(Cl)cc2)CC1 in the list: TEAD-luciferase reporter activity (compound concentration: 200 nM): inactive: -0.239; TEAD-luciferase reporter activity (compound concentration: 2 uM): inactive: 0.339; TEAD-luciferase reporter activity (compound concentration: 10 uM): inactive: 0.846
C=CCCCCCCCCC(=O)O[C@H]1CC[C@H]2[C@@H]3CCC4=CC(=O)C=C[C@]4(C)[C@H]3CC[C@]12C [Bolde    Undecylenate] in the list: TEAD-luciferase reporter activity (compound concentration: 2 uM): inactive: 0.356
CC(=O)OC(c1ccccc1)C1CCCCN1 (configuration not stated) in the list: TEAD-luciferase reporter activity (compound concentration: 200 nM): inactive: 0.261; TEAD-luciferase reporter activity (compound concentration: 2 uM): inactive: 0.147; TEAD-luciferase reporter activity (compound concentration: 10 uM): inactive: -0.771
Cc1ccc(-c2ccc(OC3CN4CCC3CC4)cn2)cc1 (configuration not stated) in the list: TEAD-luciferase reporter activity (compound concentration: 200 nM): inactive: 0.157; TEAD-luciferase reporter activity (compound concentration: 2 uM): inactive: -1.91; TEAD-luciferase reporter activity (compound concentration: 10 uM): inactive: -1.61

Further records:

SMILES | TEAD-luciferase reporter activity (compound concentration: 200 nM) | TEAD-luciferase reporter activity (compound concentration: 2 uM) | TEAD-luciferase reporter activity (compound concentration: 10 uM)
O=[N+]([O-])c1ccc([As](=O)(O)O)cc1 | inactive: 0.546 | inactive: 3.82 | inactive: -1.39
COC1C(OC(C)=O)C(C)OC(OC2CC[C@@]3(C=O)[C@@H](CCC4[C@@H]3CC[C@]3(C)[C@H](c5ccc(=O)oc5)CCC43O)C2)C1OC(C)=O (some centres not stated) | active: 14.7 | inactive: -3.15 | active: 10.6
CCCN(CCC)[C@@H]1CCc2c(OC)cccc2[C@@H]1C | inactive: 3.28 | inactive: -1.6 | inactive: 0.237
CC(C)[C@]12O[C@H]1[C@@H]1O[C@]13[C@]1(O[C@H]1C[C@H]1C4=C(CC[C@@]13C)C(=O)OC4)[C@@H]2O | inactive: -1.46 | – | inactive: -1.87
CC(C)[C@]12O[C@H]1[C@@H]1O[C@]13[C@]1(O[C@H]1C[C@H]1C4=C(CC[C@@]13C)C(=O)OC4)[C@@H]2O [Triptolide] | – | inactive: -3.77 | –
CN1C[C@@H](NS(=O)(=O)N(C)C)C[C@@H]2c3cccc4c3c(cn4C)C[C@H]21 | – | inactive: -2.05 | –
CN1C[C@@H](NS(=O)(=O)N(C)C)C[C@@H]2c3cccc4c3c(cn4C)C[C@H]21 [Mesulergine HCl] | inactive: 3.21 | – | inactive: 1.42
Oc1nc2cccc(N3CCNCC3)c2o1 | inactive: -2.21 | inactive: -1.13 | inactive: 1.97
CCCCCCCCCCCCCCCC[n+]1ccccc1 [Cetylpyridinium chloride] | inactive: 0.426 | inactive: -1.77 | inactive: -2.05
CCCCCCCCCCCCCC(=O)O[C@@H]1[C@@H](C)[C@@]2(O)[C@@H](C=C(CO)C[C@]3(O)C(=O)C(C)=C[C@@H]23)[C@@H]2C(C)(C)[C@]12OC(C)=O [Phorbol 12-myristate 13-acetate] | active: 31.6 | active: 13.7 | active: 15.8
CC1=C(N2CC2)C(=O)C(CO)=C(N2CC2)C1=O | inactive: -0.425 | inactive: -2.94 | inactive: -1.8
CC1(C)C2=CC[C@@H]3[C@H](CC[C@@]4(C)[C@H]3CC[C@]4(C)O)[C@@]2(C)Cc2cnoc21 | inactive: 0.96 | inactive: 0.425 | inactive: 0.282
c1ccc2cc(C34CNCC3C4)ccc2c1 (configuration not stated) | inactive: -1.25 | inactive: 2.05 | inactive: 1.54
CN(CCO)C(=O)c1ccc(C(=C2CCN(Cc3cscn3)CC2)c2cccc3cccnc23)cc1 | inactive: -1.68 | inactive: 0.334 | inactive: 4.84
N#Cc1ccc(N2CCN(C(=O)COc3ccc4[nH]cc(CCN)c4c3)CC2)cc1 [Donitriptan monohydrochloride] | inactive: -3.33 | – | inactive: 4.67
N#Cc1ccc(N2CCN(C(=O)COc3ccc4[nH]cc(CCN)c4c3)CC2)cc1 [donitriptan mesylate] | – | inactive: -1.16 | –
O=C1CP(=O)(O)[O][Pt-2]2([NH2+]C3CCCCC3[NH2+]2)[O]1 (configuration not stated) | inactive: -1 | inactive: 0.0729 | inactive: 0.477
CCCC(c1ccc(CCCl)cc1)c1c(O)c2ccccc2oc1=O (configuration not stated) | inactive: 0.137 | inactive: -0.982 | inactive: -1.17
CCN1C[C@]2(COC(=O)c3ccccc3N3C(=O)C[C@H](C)C3=O)CC[C@H](OC)[C@]34C1[C@](O)([C@@H](OC)[C@H]23)[C@@]1(O)C[C@H](OC)[C@H]2C[C@@H]4[C@@H]1[C@H]2OC | inactive: 0.0424 | inactive: 2.94 | inactive: -0.972
CN(CC(N)=O)C(=O)N(CCCl)N=O | inactive: -0.049 | inactive: 0.546 | inactive: 1.33
CN1CCCCC12Cc1ccccc1CN(C(=O)Cc1ccccc1)C2 (configuration not stated) | inactive: -2.84 | – | inactive: -1.9
CN(C)C(Cc1ccccc1)c1ccccc1 (configuration not stated) | inactive: 0.335 | inactive: -1.24 | inactive: 1.68
O=C(O)CNC(=O)Oc1cc(-c2oc3cc(O)cc(O)c3c(=O)c2O)ccc1O | inactive: 4.81 | inactive: -0.687 | inactive: 1.23
CC(Cc1ccc(Cl)cc1)NC(=O)OC(C)(C)C (configuration not stated) | inactive: -1.84 | inactive: -0.144 | inactive: -0.682
COc1cc(NC(=O)C(=O)c2c(C)n(Cc3ccc(Cl)cc3)c3ccc(C)cc23)ccn1 | inactive: -1.91 | inactive: 1.73 | inactive: 0.844
O.O.O.O.O.O.O.O.O=[N+]([O-])[O][Bi].O=[N+]([O-])[O][Bi].O=[N+]([O-])[O][Bi].O=[N+]([O-])[O][Bi].[O]=[Bi][OH] [Bismuth subnitrate] | inactive: 0.482 | inactive: 3.55 | inactive: 3.95
Oc1ccc(C(O)C2CCCCN2)cc1O (configuration not stated) | inactive: 0.41 | inactive: -0.633 | inactive: -0.966
